# Test results taken from article PMC2881103.
# Chains of the proteins cited; added tags and fusions are not shown. Lines headed by an entry give the natural chain unless they say otherwise; changes in a name come on top.
# UniProt Q9R283: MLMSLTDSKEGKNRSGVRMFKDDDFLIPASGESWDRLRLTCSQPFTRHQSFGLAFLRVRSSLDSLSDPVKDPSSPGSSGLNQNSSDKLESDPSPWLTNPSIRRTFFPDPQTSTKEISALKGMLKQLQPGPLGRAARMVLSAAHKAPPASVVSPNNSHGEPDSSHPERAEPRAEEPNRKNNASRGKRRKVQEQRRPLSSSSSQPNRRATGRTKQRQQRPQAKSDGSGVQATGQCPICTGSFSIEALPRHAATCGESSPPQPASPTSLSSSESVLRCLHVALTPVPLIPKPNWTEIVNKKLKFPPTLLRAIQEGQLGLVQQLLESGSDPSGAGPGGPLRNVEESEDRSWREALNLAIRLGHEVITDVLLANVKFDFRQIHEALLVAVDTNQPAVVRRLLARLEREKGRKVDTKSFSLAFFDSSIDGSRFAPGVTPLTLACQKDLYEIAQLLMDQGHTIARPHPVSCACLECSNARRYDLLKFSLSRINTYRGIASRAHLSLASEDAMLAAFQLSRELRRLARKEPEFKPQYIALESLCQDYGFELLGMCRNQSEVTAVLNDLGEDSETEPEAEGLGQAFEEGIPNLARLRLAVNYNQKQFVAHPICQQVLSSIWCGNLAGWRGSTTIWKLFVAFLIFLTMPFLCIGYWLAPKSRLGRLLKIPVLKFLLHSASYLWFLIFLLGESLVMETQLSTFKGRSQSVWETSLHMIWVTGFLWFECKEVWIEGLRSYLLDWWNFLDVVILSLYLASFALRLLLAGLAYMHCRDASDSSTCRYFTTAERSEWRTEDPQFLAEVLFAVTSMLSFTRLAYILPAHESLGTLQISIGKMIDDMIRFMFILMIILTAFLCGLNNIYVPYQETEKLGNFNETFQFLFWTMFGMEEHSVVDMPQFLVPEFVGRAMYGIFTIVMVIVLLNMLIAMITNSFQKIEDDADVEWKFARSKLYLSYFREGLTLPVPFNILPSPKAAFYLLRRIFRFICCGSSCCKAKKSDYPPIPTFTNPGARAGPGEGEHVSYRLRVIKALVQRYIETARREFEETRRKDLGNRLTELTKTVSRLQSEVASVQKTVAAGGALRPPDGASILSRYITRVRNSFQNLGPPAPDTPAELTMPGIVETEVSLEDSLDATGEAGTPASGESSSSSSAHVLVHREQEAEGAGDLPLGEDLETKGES
# These are yes or no findings as the source states them, for the method shown. In cells and extracts the contact can be indirect. A result given as binding can be weak or reduced; the word gives no strength.
# T1: receptor transporting protein 1 (RTP1) (rat (endogenous in VNO)) (UniProt D4AEN1)
# T1 sequence: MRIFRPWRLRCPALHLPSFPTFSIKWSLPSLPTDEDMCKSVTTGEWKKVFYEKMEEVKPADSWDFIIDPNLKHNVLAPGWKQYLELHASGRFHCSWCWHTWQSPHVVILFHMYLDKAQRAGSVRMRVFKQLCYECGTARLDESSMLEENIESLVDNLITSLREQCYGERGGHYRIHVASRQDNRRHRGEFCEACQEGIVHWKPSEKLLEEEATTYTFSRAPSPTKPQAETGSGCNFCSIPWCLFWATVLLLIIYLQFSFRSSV
# Legend:
# [1] = target: T1, receptor transporting protein 1 (RTP1) (rat (endogenous in VNO)); assay: co-IP; native P30 rat VNO lysates, precleared with protein A sepharose; overnight at 4°C with 5 μg/ml antiserum, protein A sepharose 3 hr, four washes; SDS-PAGE and Western blot for the suspected partner; reciprocal
# [2] = target: canonical transient receptor potential channel type 2 (TRPC2) (rat (endogenous in VNO)) (UniProt Q9R283); assay: as above
binding [1],binding [2],Molecule
binds,,canonical transient receptor potential channel type 2 (TRPC2) (from UniProt Q9R283-2)
,binds,"receptor transporting protein 1 (RTP1) (protein, UniProt D4AEN1 1-263) MRIFRPWRLRCPALHLPSFPTFSIKWSLPSLPTDEDMCKSVTTGEWKKVFYEKMEEVKPADSWDFIIDPNLKHNVLAPGWKQYLELHASGRFHCSWCWHTWQSPHVVILFHMYLDKAQRAGSVRMRVFKQLCYECGTARLDESSMLEENIESLVDNLITSLREQCYGERGGHYRIHVASRQDNRRHRGEFCEACQEGIVHWKPSEKLLEEEATTYTFSRAPSPTKPQAETGSGCNFCSIPWCLFWATVLLLIIYLQFSFRSSV"
